Results are given in words; binding and its absence hold for the method and conditions named.
How the values were obtained:
Experiment in all cases: SPR; TNFSF member immobilised by amine coupling on a ProteOn GLH chip, S100 protein as analyte; 25°C; 10 mM HEPES-NaOH, 150 mM NaCl, 0.05% TWEEN 20, 1 mM CaCl2, pH 7.4; both purified
[1] = target: FasL, TNF ligand superfamily member 6, soluble form (human)
[2] = target: BAFF, TNF ligand superfamily member 13B, soluble form (human)
[3] = target: T1, RANKL, TNF ligand superfamily member 11, soluble form (human)
T1 sequence: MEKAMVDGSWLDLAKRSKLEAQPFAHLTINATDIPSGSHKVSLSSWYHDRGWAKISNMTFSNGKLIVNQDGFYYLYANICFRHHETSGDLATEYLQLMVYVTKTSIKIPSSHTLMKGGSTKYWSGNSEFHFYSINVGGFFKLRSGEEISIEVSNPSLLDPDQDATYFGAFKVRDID

[4] = target: OX40L, TNF ligand superfamily member 4, soluble form (human)
[5] = target: CD40L, TNF ligand superfamily member 5, soluble form (human)

B1: S100A9 (protein, UniProt P06702 1-114)
chain: MTCKMSQLERNIETIINTFHQYSVKLGHPDTLNQGEFKELVRKDLQNFLKKENKNEKVIEHIMEDLDTNADKQLSFEEFIMLMARLTWASHEKMHEGDEGPGHHHKPGLGEGTP
- binding [1]: no binding (tested: analyte 62.5 nM to 16 μM)
- binding [2]: no binding (tested: analyte 62.5 nM to 16 μM)
- binding [3]: no binding (tested: analyte 62.5 nM to 16 μM)
- binding [4]: no binding (tested: analyte 62.5 nM to 16 μM)
- binding [5]: no binding (tested: analyte 62.5 nM to 16 μM)

B2: S100A15 (protein, UniProt Q86SG5 1-101)
chain: MSNTQAERSIIGMIDMFHKYTGRDGKIEKPSLLTMMKENFPNFLSACDKKGIHYLATVFEKKDKNEDKKIDFSEFLSLLGDIAADYHKQSHGAAPCSGGSQ
- binding [1]: no binding (tested: analyte 62.5 nM to 16 μM)
- binding [2]: no binding (tested: analyte 62.5 nM to 16 μM)
- binding [3]: no binding (tested: analyte 62.5 nM to 16 μM)
- binding [4]: no binding (tested: analyte 62.5 nM to 16 μM)
- binding [5]: no binding (tested: analyte 62.5 nM to 16 μM)

B3: S100A16 (protein, UniProt Q96FQ6 1-103)
chain: MSDCYTELEKAVIVLVENFYKYVSKYSLVKNKISKSSFREMLQKELNHMLSDTGNRKAADKLIQNLDANHDGRISFDEYWTLIGGITGPIAKLIHEQEQQSSS
- binding [1]: no binding (tested: analyte 62.5 nM to 16 μM)
- binding [2]: no binding (tested: analyte 62.5 nM to 16 μM)
- binding [3]: no binding (tested: analyte 62.5 nM to 16 μM)
- binding [4]: no binding (tested: analyte 62.5 nM to 16 μM)
- binding [5]: no binding (tested: analyte 62.5 nM to 16 μM)

B4: S100B (protein, UniProt P04271 1-92)
chain: MSELEKAMVALIDVFHQYSGREGDKHKLKKSELKELINNELSHFLEEIKEQEVVDKVMETLDNDGDGECDFQEFMAFVAMVTTACHEFFEHE
- binding [1]: no binding (tested: analyte 62.5 nM to 16 μM)
- binding [2]: no binding (tested: analyte 62.5 nM to 16 μM)
- binding [3]: no binding (tested: analyte 62.5 nM to 16 μM)
- binding [4]: no binding (tested: analyte 62.5 nM to 16 μM)
- binding [5]: no binding (tested: analyte 62.5 nM to 16 μM)

B5: S100P (protein, UniProt P25815 1-95)
chain: MTELETAMGMIIDVFSRYSGSEGSTQTLTKGELKVLMEKELPGFLQSGKDKDAVDKLLKDLDANGDAQVDFSEFIVFVAAITSACHKYFEKAGLK
- binding [1]: no binding (tested: analyte 62.5 nM to 16 μM)
- binding [2]: no binding (tested: analyte 62.5 nM to 16 μM)
- binding [3]: no binding (tested: analyte 62.5 nM to 16 μM)
- binding [4]: no binding (tested: analyte 62.5 nM to 16 μM)
- binding [5]: no binding (tested: analyte 62.5 nM to 16 μM)

B6: S100G (protein, UniProt P29377 1-79)
chain: MSTKKSPEELKRIFEKYAAKEGDPDQLSKDELKLLIQAEFPSLLKGPNTLDDLFQELDKNGDGEVSFEEFQVLVKKISQ
- binding [1]: no binding (tested: analyte 62.5 nM to 16 μM)
- binding [2]: no binding (tested: analyte 62.5 nM to 16 μM)
- binding [3]: no binding (tested: analyte 62.5 nM to 16 μM)
- binding [4]: no binding (tested: analyte 62.5 nM to 16 μM)
- binding [5]: no binding (tested: analyte 62.5 nM to 16 μM)

B7: S100Z (protein, UniProt Q8WXG8 1-99)
chain: MPTQLEMAMDTMIRIFHRYSGKERKRFKLSKGELKLLLQRELTEFLSCQKETQLVDKIVQDLDANKDNEVDFNEFVVMVAALTVACNDYFVEQLKKKGK
- binding [1]: no binding (tested: analyte 62.5 nM to 16 μM)
- binding [2]: no binding (tested: analyte 62.5 nM to 16 μM)
- binding [3]: no binding (tested: analyte 62.5 nM to 16 μM)
- binding [4]: no binding (tested: analyte 62.5 nM to 16 μM)
- binding [5]: no binding (tested: analyte 62.5 nM to 16 μM)

B8: S100A11 (protein, UniProt P31949 1-105)
chain: MAKISSPTETERCIESLIAVFQKYAGKDGYNYTLSKTEFLSFMNTELAAFTKNQKDPGVLDRMMKKLDTNSDGQLDFSEFLNLIGGLAMACHDSFLKAVPSQKRT
- binding [1]: no binding (tested: analyte 62.5 nM to 16 μM)
- binding [2]: no binding (tested: analyte 62.5 nM to 16 μM)
- binding [3]: no binding (tested: analyte 62.5 nM to 16 μM)
- binding [4]: no binding (tested: analyte 62.5 nM to 16 μM)
- binding [5]: no binding (tested: analyte 62.5 nM to 16 μM)

B9: S100A12 (protein, UniProt P80511 1-92)
chain: MTKLEEHLEGIVNIFHQYSVRKGHFDTLSKGELKQLLTKELANTIKNIKDKAVIDEIFQGLDANQDEQVDFQEFISLVAIALKAAHYHTHKE
- binding [1]: no binding (tested: analyte 62.5 nM to 16 μM)
- binding [2]: no binding (tested: analyte 62.5 nM to 16 μM)
- binding [3]: no binding (tested: analyte 62.5 nM to 16 μM)
- binding [4]: no binding (tested: analyte 62.5 nM to 16 μM)
- binding [5]: no binding (tested: analyte 62.5 nM to 16 μM)

B10: S100A13 (protein, UniProt Q99584 1-98)
chain: MAAEPLTELEESIETVVTTFFTFARQEGRKDSLSVNEFKELVTQQLPHLLKDVGSLDEKMKSLDVNQDSELKFNEYWRLIGELAKEIRKKKDLKIRKK
- binding [1]: no binding (tested: analyte 62.5 nM to 16 μM)
- binding [2]: no binding (tested: analyte 62.5 nM to 16 μM)
- binding [3]: no binding (tested: analyte 62.5 nM to 16 μM)
- binding [4]: no binding (tested: analyte 62.5 nM to 16 μM)
- binding [5]: no binding (tested: analyte 62.5 nM to 16 μM)

B11: S100A14 (protein, UniProt Q9HCY8 1-104)
chain: MGQCRSANAEDAQEFSDVERAIETLIKNFHQYSVEGGKETLTPSELRDLVTQQLPHLMPSNCGLEEKIANLGSCNDSKLEFRSFWELIGEAAKSVKLERPVRGH
- binding [1]: no binding (tested: analyte 62.5 nM to 16 μM)
- binding [2]: no binding (tested: analyte 62.5 nM to 16 μM)
- binding [3]: no binding (tested: analyte 62.5 nM to 16 μM)
- binding [4]: no binding (tested: analyte 62.5 nM to 16 μM)
- binding [5]: no binding (tested: analyte 62.5 nM to 16 μM)

B12: S100A3 (protein, UniProt P33764 1-101)
chain: MARPLEQAVAAIVCTFQEYAGRCGDKYKLCQAELKELLQKELATWTPTEFRECDYNKFMSVLDTNKDCEVDFVEYVRSLACLCLYCHEYFKDCPSEPPCSQ
- binding [1]: no binding (tested: analyte 62.5 nM to 16 μM)
- binding [2]: no binding (tested: analyte 62.5 nM to 16 μM)
- binding [3]: no binding (tested: analyte 62.5 nM to 16 μM)
- binding [4]: no binding (tested: analyte 62.5 nM to 16 μM)
- binding [5]: no binding (tested: analyte 62.5 nM to 16 μM)

B13: S100A5 (protein, UniProt P33763 1-92)
chain: METPLEKALTTMVTTFHKYSGREGSKLTLSRKELKELIKKELCLGEMKESSIDDLMKSLDKNSDQEIDFKEYSVFLTMLCMAYNDFFLEDNK
- binding [1]: no binding (tested: analyte 62.5 nM to 16 μM)
- binding [2]: no binding (tested: analyte 62.5 nM to 16 μM)
- binding [3]: no binding (tested: analyte 62.5 nM to 16 μM)
- binding [4]: no binding (tested: analyte 62.5 nM to 16 μM)
- binding [5]: no binding (tested: analyte 62.5 nM to 16 μM)

B14: S100A7 (protein, UniProt P31151 1-101)
chain: MSNTQAERSIIGMIDMFHKYTRRDDKIEKPSLLTMMKENFPNFLSACDKKGTNYLADVFEKKDKNEDKKIDFSEFLSLLGDIATDYHKQSHGAAPCSGGSQ
- binding [1]: no binding (tested: analyte 62.5 nM to 16 μM)
- binding [2]: no binding (tested: analyte 62.5 nM to 16 μM)
- binding [3]: no binding (tested: analyte 62.5 nM to 16 μM)
- binding [4]: no binding (tested: analyte 62.5 nM to 16 μM)
- binding [5]: no binding (tested: analyte 62.5 nM to 16 μM)

B15: S100A7L2 (protein, UniProt Q5SY68 1-101)
chain: MNIPLGEKVMLDIVAMFRQYSGDDGRMDMPGLVNLMKENFPNFLSGCEKSDMDYLSNALEKKDDNKDKKVNYSEFLSLLGDITIDHHKIMHGVAPCSGGSQ
- binding [1]: no binding (tested: analyte 62.5 nM to 16 μM)
- binding [2]: no binding (tested: analyte 62.5 nM to 16 μM)
- binding [3]: no binding (tested: analyte 62.5 nM to 16 μM)
- binding [4]: no binding (tested: analyte 62.5 nM to 16 μM)
- binding [5]: no binding (tested: analyte 62.5 nM to 16 μM)

B16: S100A8 (protein, UniProt P05109 1-93)
chain: MLTELEKALNSIIDVYHKYSLIKGNFHAVYRDDLKKLLETECPQYIRKKGADVWFKELDINTDGAVNFQEFLILVIKMGVAAHKKSHEESHKE
- binding [1]: no binding (tested: analyte 62.5 nM to 16 μM)
- binding [2]: no binding (tested: analyte 62.5 nM to 16 μM)
- binding [3]: no binding (tested: analyte 62.5 nM to 16 μM)
- binding [4]: no binding (tested: analyte 62.5 nM to 16 μM)
- binding [5]: no binding (tested: analyte 62.5 nM to 16 μM)

Source: article PMC13623127
